In PMC5622097:

Target: FLAG-Gαi3
Experiment: affinity purification with mass spectrometry; SILAC-labelled HEK293 cells stably expressing FLAG-Gαi3 and mycKOR, treated 5.5 h with vehicle or norBNI (10 µM); solubilized in 1% digitonin in coIP buffer; anti-FLAG agarose overnight at 4 °C, eluted with 3xFLAG peptide; specificity control with excess FLAG peptide

B1: peroxiredoxin 6 (PRDX6) (enzyme, UniProt P30041 1-224)
chain: MPGGLLLGDVAPNFEANTTVGRIRFHDFLGDSWGILFSHPRDFTPVCTTELGRAAKLAPEFAKRNVKLIALSIDSVEDHLAWSKDINAYNCEEPTEKLPFPIIDDRNRELAILLGMLDPAEKDEKGMPVTARVVFVFGPDKKLKLSILYPATTGRNFDEILRVVISLQLTAEKRVATPVDWKDGDSVMVLPTIPEEEAKKLFPKGVFTKELPSGKKYLRYTPQP
  binding: binds

No constants are given. Whether binding was seen depends on the method and setting. In cells and extracts the contact can be indirect. A yes stands for co-enrichment or nearness to the bait. Other partners may have been found.
